Measured values: article PMC7432475, “β-Carbolines in Experiments on Laboratory Animals” (International Journal of Molecular Sciences, 2020)
Read-outs that look alike come from different tables or passages of the source.

Conditions: stage I

Cc1nccc2c1[nH]c1ccccc12 [H, harman]
Water [%] in feces (group H1 (10 µg H/kg diet)): 21,90%
Water [%] in feces (group H2 (15 µg H/kg diet)): 17,40%
Water [%] in feces (group H3 (20 µg H/kg diet)): 18,30%

c1ccc2c(c1)[nH]c1cnccc12 [NH, norharman]
Water [%] in feces (group NH1 (8 µg NH/kg diet)): 20,70%
Water [%] in feces (group NH2 (12 µg NH/kg diet)): 22,40%
Water [%] in feces (group NH3 (16 µg NH/kg diet)): 26,90%
